{"sequences": {"note": "Amino acid sequences for entries named in this document (tags omitted).", "UniProt P42336, whole entry H1047R": "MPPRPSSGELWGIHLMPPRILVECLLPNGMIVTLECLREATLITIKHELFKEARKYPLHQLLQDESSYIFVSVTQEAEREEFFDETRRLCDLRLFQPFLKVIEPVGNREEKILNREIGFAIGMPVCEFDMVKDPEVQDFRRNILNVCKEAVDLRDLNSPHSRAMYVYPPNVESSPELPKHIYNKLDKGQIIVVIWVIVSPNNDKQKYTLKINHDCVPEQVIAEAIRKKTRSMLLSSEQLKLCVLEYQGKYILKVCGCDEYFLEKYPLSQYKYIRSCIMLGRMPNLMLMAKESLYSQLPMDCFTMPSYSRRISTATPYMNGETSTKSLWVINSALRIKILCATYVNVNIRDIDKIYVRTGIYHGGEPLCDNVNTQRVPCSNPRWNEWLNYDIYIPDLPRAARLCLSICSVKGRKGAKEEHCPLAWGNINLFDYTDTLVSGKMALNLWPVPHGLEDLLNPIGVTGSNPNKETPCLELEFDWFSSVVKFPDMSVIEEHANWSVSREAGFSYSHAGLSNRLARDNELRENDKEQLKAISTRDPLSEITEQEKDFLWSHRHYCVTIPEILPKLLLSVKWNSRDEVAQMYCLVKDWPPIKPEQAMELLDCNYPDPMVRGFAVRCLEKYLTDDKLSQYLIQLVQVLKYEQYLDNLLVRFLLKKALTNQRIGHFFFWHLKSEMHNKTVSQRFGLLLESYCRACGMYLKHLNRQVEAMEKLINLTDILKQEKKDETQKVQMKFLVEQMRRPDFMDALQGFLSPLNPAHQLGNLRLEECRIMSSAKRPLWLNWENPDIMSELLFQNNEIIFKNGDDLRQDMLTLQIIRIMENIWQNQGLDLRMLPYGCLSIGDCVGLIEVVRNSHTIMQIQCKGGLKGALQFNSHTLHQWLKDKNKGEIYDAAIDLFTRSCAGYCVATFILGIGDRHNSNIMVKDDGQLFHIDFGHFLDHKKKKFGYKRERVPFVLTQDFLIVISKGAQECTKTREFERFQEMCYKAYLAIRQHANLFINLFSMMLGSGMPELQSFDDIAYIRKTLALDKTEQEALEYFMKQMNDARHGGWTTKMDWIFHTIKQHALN"}, "source": "patent US20260297066A1", "about": "“COMPOUNDS FOR TREATING CANCER” (Genesis Molecular AI, Inc., priority 2023, published 2026)", "key": {"[1]": {"molecular_target": "T1, T47D (H1047R), pAKT S473 (Homo sapiens, UniProt P42336, H1047R)", "T1 construct": "EGF-stimulated pAKT S473 HTRF", "assay": "PI3Kα cellular assay: pAKT S473 HTRF in T47D cells (H1047R)", "type": "cell-based", "details": "serum starved, 1 hr compound, 10 min 20 ng/ml EGF"}, "[2]": {"test_system": "SKBR3 (WT), pAKT S473 (versus T47D (H1047R))", "assay": "PI3Kα cellular assay: T47D (H1047R) selectivity over SKBR3 (WT), pAKT S473 HTRF", "type": "cell-based"}}, "note": "At least one compound was matched to its structure with a doubt left."}
{"smiles": "CC(=O)N1[C@@H]2CC[C@H]1CC(N1Cc3c(cc(C)cc3C(C)Nc3ccccc3C(=O)O)C1=O)C2", "note": "(stereo partly drawn) [Compound 117, 2-((1-(2-((1R,3s,5S)-8-acetyl-8-azabicyclo[3.2.1]octan-3-yl)-6-methyl-1-oxoisoindolin-4-yl)ethyl)amino)benzoic Acid]", "values": [{"measurement": "IC50", "setting": "[1]", "value": "< 750", "unit": "nM"}, {"measurement": "T47D pAKT S473 HTRF IC50 (H1047R): T47D (H1047R) selectivity over SKBR3 (WT)", "setting": "[2]", "value": "A (>20-fold)"}]}
